# Results published in patent publication US12383535B2, “Hydrogen peroxide-responsive KEAP1-NRF2 ppi inhibitor prodrug, and preparation method therefor” (CHINA PHARMACEUTICAL UNIVERSITY, priority 2019, dated 2025).
# System: RAW264.7 cells
# Experiment: Intracellular drug release by LC-MS
# Type: cell-based, mouse
# Conditions: prodrug 1 mM
smiles,measurement,setting,value
COc1ccc(S(=O)(=O)Nc2ccc(N(CC(=O)N3CCSC3=O)S(=O)(=O)c3ccc(OC)cc3)c3ccccc23)cc1 [pro2],peak for parent compound 2 in cell lysate,H2O2-stimulated RAW264.7 cells,a clear signal for the parent compound 2 was observed
same,peak for parent compound 2 in cell lysate,unstimulated RAW264.7 cells,not observed
